Measured values: patent EP0316690A2, “Agent for the treatment of ischemic heart diseases” (Dr. Karl Thomae GmbH, priority 1987, dated 1989)
Some results were stated once for a whole list of compounds, not compound by compound.

Tested on: glattmuskuläre coronare Muscarinrezeptoren
Experiment: Isolated perfused Langendorff heart: antagonism of the carbachol effect on coronary flow (CF)
Parameters: species or system Wistar Ratten
Settings: isolated rat heart, agonist Carbachol
Description: Meßparameter sind Herzfrequenz und Coronarfluß.
Männliche Wistar Ratten mit einem Körpergewicht zwischen 300 und 350 g wurden mit Pentobarbital (70 mg/kg i.p.) anaesthe siert. […] Die Herzen wurden über die Aorta mit Krebs-Henseleit-Puffer (KHB) retograd bei einem konstanten Druck von 70 mm Hg perfundiert. Die Zusammensetzung des KHB betrug in mM: Kochsalz 114, Kaliumchlorid 4,7, Natriumbicarbonat 23,6, Kaliumdihydrogenphosphat 1,2, Magnesiumsulfat 1,1, Calziumchlorid 2,5. 11 mM Glucose wurden als Substrat beigefügt. Die Herzfrequenz (HR) wurde durch einen Tachographen (IFD, Mülheim) gemessen, der Coronarfluß (CF) wurde mittels eines elektromagnetischen Flowmeters (IFD, Mülheim) in Verbindung mit einer Sonde in dem zuführenden Teil der Aorta bestimmt.
Nach einer 15-minütigen Stabilisierungsphase in allen Experimenten wurde die erste Dosis-Wirkungs-Kurve erstellt. Dies geschah durch die Gabe von dem Fluß angepaßten Bolus-Injektionen (0,01 ml/10 ml CF) mit ansteigenden Dosierungen von Carbachol (10⁻⁶ bis 10⁻²M). Danach wurde die niedrigste Dosis des Antagonisten dem Perfusat beigegeben und die Dosis-Wirkungs-Kurve erneut aufgenommen. Darauffolgend gab man eine höhere Dosis des Antagonisten zu und es wurde der Einfluß von Carbachol auf den Coronarfluß (CF) und die Herzfrequenz (HF) erneut durch die Aufnahme von Dosis-Wirkungs-Kurven quantifiziert.

Compound | Type of antagonism of the Reaktion des Coronarflusses to Carbachol
CN1CCC(CC(=O)N2c3ccccc3C(=O)Nc3cccc(Cl)c32)CC1 (racemic) [Substanz I, 6-Chlor-5,10-dihydro-5-[(1-methyl-4-piperidinyl)acetyl]-11H-dibenzo[b,e][1,4]diazepin-11-on] | antagonisierten kompetitiv
CN1CCC(CC(=O)N2c3ccccc3C(=O)Nc3cccc(Cl)c32)CC1 (single isomer, unassigned) [Substanz II, (+)-6-Chlor-5,10-dihydro-5-[(1-methyl-4-piperidinyl)acetyl]-11H-dibenzo[b,e][1,4]diazepin-11-on] | antagonisierten kompetitiv
